Here are results for one substance from paper PMC7693276.

Results are given in words; binding and its absence hold for the method and conditions named. Binding can be weak; no strength is given.

The experiment has as its target T1, central subunit NDUFS2 of Y. lipolytica complex I (Y. lipolytica) (UniProt Q9UUU1).
T1 sequence: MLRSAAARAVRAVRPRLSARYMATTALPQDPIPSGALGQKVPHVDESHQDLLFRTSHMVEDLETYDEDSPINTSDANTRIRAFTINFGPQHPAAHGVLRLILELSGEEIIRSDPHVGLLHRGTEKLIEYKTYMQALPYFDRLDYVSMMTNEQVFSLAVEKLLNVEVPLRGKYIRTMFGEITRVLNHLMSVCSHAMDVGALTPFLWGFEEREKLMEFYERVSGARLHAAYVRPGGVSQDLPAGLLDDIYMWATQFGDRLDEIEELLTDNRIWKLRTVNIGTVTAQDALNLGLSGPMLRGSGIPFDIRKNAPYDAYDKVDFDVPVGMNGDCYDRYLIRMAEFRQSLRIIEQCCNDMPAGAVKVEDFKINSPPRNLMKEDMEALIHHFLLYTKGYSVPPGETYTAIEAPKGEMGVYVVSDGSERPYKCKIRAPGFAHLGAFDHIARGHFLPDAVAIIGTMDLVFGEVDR
Put plainly: cryo-EM structure; complex I F89A^LYRM6 mutant purified in LMNG, polished on MonoQ, applied at 1.5 mg/ml; final map at 2.96 Å; model built on the WT structure PDB 6RFR as template; both purified.

As for “accessory subunit LYRM6 (NDUFA6) mutant F89A of Y. lipolytica complex I”, the binding result is “binds”.
